Assay results reported in PubChem BioAssay AID2685 (National Center for Advancing Translational Sciences (NCATS), 2010).
In all, about 320,000 compounds went through this assay and about 2,100 (0.66%) were called active. Inconclusive results, whose numbers are uncertain, are shown with a selection of clear calls. Calls follow the shape of the dose curve; as a rule, active = well fitted inhibition curve with a large enough effect in the signal ratio, with a control signal flat (not every such curve was filed as active); inconclusive = small, poorly fitted or top-dose-only effect, or effect the other way, or a change in a side signal; inactive = flat fitted curve, though single readings scatter; the % refers to the signal ratio. Where the call is inconclusive, the potency comes from a doubtful curve fit.

Experiment: qHTS Assay for Lipid Storage Modulators in Drosophila S3 Cells
Conditions: BODIPY lipid droplet fluorescence, 18-24 h, cells fed with added oleic acid; lipid storage change, negative = inhibition: at 46.1 µM (top of the series) unless noted
In short: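 Drosophila S3 cells got compounds at several concentrations plus oleic acid (400 uM solution). Laser-scanning cytometry with 488 nm excitation read lipid droplets at 500-530 nm and cells at 575-640 nm. Percent activity was relative to 20 uM Triacsin C.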
% is scaled to controls: 0 for no effect and ±100 for the full control effect; potency is read from the fitted curve at half-maximal effect.

Structure (SMILES)	Potency	lipid storage change, negative = inhibition	outcome
COc1cc(/C=N/N2CCCCC2)cc([N+](=O)[O-])c1O	inconclusive: 29.1 µM [activator, single point]		
CC1CN(S(=O)(=O)c2ccc(C(=O)Nc3sccc3C(N)=O)cc2)CC(C)O1 (centres undefined)		inconclusive: 0.205%	
O=C(CNS(=O)(=O)c1ccc2c(c1)OCCCO2)N1CCN(c2ccc(F)cc2)CC1	inconclusive: 3.26 µM [activator, partial curve]		
Cc1ccc(-n2nc(C)c3c(C)c(CCC(=O)NCc4ccco4)c(C)nc32)cc1	inconclusive: 29.1 µM [falling, single point]		
CCc1c(O)nc(SC2CC(=O)N(c3ccc(F)c(Cl)c3)C2=O)[nH]c1=O (centres undefined)		inconclusive: -10.8%	
Cc1cccc2nc(CNC(=O)C3CCC(=O)N(Cc4ccccc4F)C3)cn12 (centres undefined)		inconclusive: 23.1%	
Fc1ccc(-n2nnc(-c3ccccc3Cl)n2)cc1		inconclusive: -45.9%	
CN(CC(=O)Nc1ccccc1Br)C(=O)CNC(=O)c1ccc2c(c1)OCO2		inconclusive: 50.1%	
CCOC(=O)C1=C(COC(=O)/C=C/c2ccc(C)o2)NC(=O)NC1C (centres undefined)		inconclusive: 3.71%	
Cc1n[nH]c(C)c1CCC(=O)N/N=C/c1c(C)[nH]c2ccccc12	inconclusive: 16.4 µM [rising, partial curve]		
C=CCN(CC=C)CCCOc1ccc(C)cc1OC	inconclusive: 20.6 µM [falling, single point]		
C#CCOCCOCCOCCNc1nc(N2CCN(C(=O)[C@H]([C@@H](C)CC)n3cc(CCC(=O)O)nn3)CC2)nc(N2CCN(C(=O)[C@H](C)n3cc(CCCN=C(N)N)nn3)CC2)n1		inconclusive: -22.8%	
COc1ccc(O)c(-c2cc(-c3ccccc3[N+](=O)[O-])[nH]n2)c1		inactive: 7.36%	
Cc1cc(NC(=O)CC2(CC(=O)O)CCCC2)n(C)n1		inconclusive: -31.6%	
COc1ccccc1CNC(=O)[C@H](NC(=O)C1CCN(C(=O)[C@@H](N)CCSC)CC1)C(C)C	inconclusive: 23.1 µM [activator, single point]		
COc1ccccc1NC(=O)C(C)OC(=O)CCC1CCCCC1 (centres undefined)		inconclusive: -14.8%	
O=C(Nc1ccc2oc(-c3cccnc3)nc2c1)c1cccnc1		inconclusive: 28.8%	
NC(=O)Nc1cc(Cl)ccc1Cl		inconclusive: -18.3%	
c1ccc(CN2CCC3(CCCc4ccccc43)CC2)cc1		inconclusive: 9.82%	
O=Cc1ccc(-n2cc(C=O)c3ccccc32)cc1	inconclusive: 23.1 µM [falling, single point]		
Cc1nn(C)cc1C(C(=O)NC1CCCCC1)N(C(=O)c1cnccn1)c1ccc(Oc2ccccc2)cc1 (centres undefined)	inconclusive: 4.61 µM [activator, full curve, poor fit]		
O=c1[nH]cnc2c1cnn2Cc1ccccc1Cl			inactive [at 46.1 µM]
COc1ccc(C(=O)NC2CCN(S(=O)(=O)c3ccc(C)cc3)CC2)cc1		inconclusive: -16.8%	
CCc1ccc(NC(=O)CNC(=O)[C@@H]2Cc3ccccc3CN2)cc1	inconclusive: 0.461 µM [activator, partial curve, poor fit]		
O=S(=O)(Nc1nc2ccccc2nc1N1CCN(c2ccccn2)CC1)c1ccc(Cl)cc1		inconclusive: -29.8%	

Already shown: an excerpt of the list.
Structure (SMILES)	Potency	lipid storage change, negative = inhibition	outcome
Cc1ccc(-n2nc(C)c3c(C)c(CCC(=O)NCc4ccco4)c(C)nc32)cc1	inconclusive: 29.1 µM [falling, single point]		
CCc1c(O)nc(SC2CC(=O)N(c3ccc(F)c(Cl)c3)C2=O)[nH]c1=O (centres undefined)		inconclusive: -10.8%	
Cc1cccc2nc(CNC(=O)C3CCC(=O)N(Cc4ccccc4F)C3)cn12 (centres undefined)		inconclusive: 23.1%	
Fc1ccc(-n2nnc(-c3ccccc3Cl)n2)cc1		inconclusive: -45.9%	
CN(CC(=O)Nc1ccccc1Br)C(=O)CNC(=O)c1ccc2c(c1)OCO2		inconclusive: 50.1%	
CCOC(=O)C1=C(COC(=O)/C=C/c2ccc(C)o2)NC(=O)NC1C (centres undefined)		inconclusive: 3.71%	
Cc1n[nH]c(C)c1CCC(=O)N/N=C/c1c(C)[nH]c2ccccc12	inconclusive: 16.4 µM [rising, partial curve]		
C=CCN(CC=C)CCCOc1ccc(C)cc1OC	inconclusive: 20.6 µM [falling, single point]		
C#CCOCCOCCOCCNc1nc(N2CCN(C(=O)[C@H]([C@@H](C)CC)n3cc(CCC(=O)O)nn3)CC2)nc(N2CCN(C(=O)[C@H](C)n3cc(CCCN=C(N)N)nn3)CC2)n1		inconclusive: -22.8%	
COc1ccc(O)c(-c2cc(-c3ccccc3[N+](=O)[O-])[nH]n2)c1		inactive: 7.36%	
Cc1cc(NC(=O)CC2(CC(=O)O)CCCC2)n(C)n1		inconclusive: -31.6%	
COc1ccccc1CNC(=O)[C@H](NC(=O)C1CCN(C(=O)[C@@H](N)CCSC)CC1)C(C)C	inconclusive: 23.1 µM [activator, single point]		
COc1ccccc1NC(=O)C(C)OC(=O)CCC1CCCCC1 (centres undefined)		inconclusive: -14.8%	
O=C(Nc1ccc2oc(-c3cccnc3)nc2c1)c1cccnc1		inconclusive: 28.8%	
NC(=O)Nc1cc(Cl)ccc1Cl		inconclusive: -18.3%	
c1ccc(CN2CCC3(CCCc4ccccc43)CC2)cc1		inconclusive: 9.82%	
O=Cc1ccc(-n2cc(C=O)c3ccccc32)cc1	inconclusive: 23.1 µM [falling, single point]		
Cc1nn(C)cc1C(C(=O)NC1CCCCC1)N(C(=O)c1cnccn1)c1ccc(Oc2ccccc2)cc1 (centres undefined)	inconclusive: 4.61 µM [activator, full curve, poor fit]		
O=c1[nH]cnc2c1cnn2Cc1ccccc1Cl			inactive [at 46.1 µM]
COc1ccc(C(=O)NC2CCN(S(=O)(=O)c3ccc(C)cc3)CC2)cc1		inconclusive: -16.8%	
CCc1ccc(NC(=O)CNC(=O)[C@@H]2Cc3ccccc3CN2)cc1	inconclusive: 0.461 µM [activator, partial curve, poor fit]		
O=S(=O)(Nc1nc2ccccc2nc1N1CCN(c2ccccn2)CC1)c1ccc(Cl)cc1		inconclusive: -29.8%	

Continuation.

Structure (SMILES)	Potency	lipid storage change, negative = inhibition	outcome
COc1ccc(CCN(Cc2cc3ccc(C)cc3[nH]c2=O)C(C)=O)cc1OC		inactive: 19.7%	
CCc1ccc(-c2nc(CN3CCC(C(=O)NCc4ccccc4OC)CC3)c(C)o2)cc1	inconclusive: 18.4 µM [falling, single point]		
CC(C)C(=O)Nc1ccc(C(=O)Nc2nnc(C(C)C)s2)cc1		inconclusive: -17.8%	
CCc1cc(=O)oc2cc(OCC(=O)NCCCN3CCCC3=O)c(Cl)cc12	active: 16.4 µM		
CC(=O)c1ccc(OCCCC(=O)OCC(=O)Nc2c(C)nn(-c3ccccc3)c2C)cc1		inconclusive: 15.5%	
C=CCNC(=O)N[C@@H](CCSC)C(=O)OC		inconclusive: -32.8%	
O=C(CSc1nnc(-c2ccncc2)n1-c1ccccc1)NCC1CCCO1 (centres undefined)		inconclusive: -6.03%	
O=C(NCCCn1ccnc1)c1cccc(S(=O)(=O)Nc2ccc(F)cc2)c1		inconclusive	
Cc1cc(/C=N/n2cnnc2)c(C)n1-c1ccc(Cl)cc1Cl		inconclusive: 56.7%	
COc1cc(OC)cc(C(=O)N2CCC(N3CCCCCC3)CC2)c1		inconclusive: -2.41%	
O=C1OCCC1Sc1nnc(-c2cccnc2)n1-c1ccccc1F (centres undefined)		inconclusive: -20.6%	
Cc1cccc2c1-c1sc(C(=O)N3CCc4ccccc4C3)cc1CO2	inconclusive: 14.6 µM [activator, partial curve, poor fit]		
COC(=O)C1(CC2CC(c3ccncc3)=NO2)CCN(C(=O)OC(C)(C)C)CC1 (centres undefined)	inconclusive: 0.0046 µM [falling, full curve, poor fit]		
C=CCSc1nnc(NC(=O)CSc2nnc(C)s2)s1		inconclusive: 2.29%	
Cc1cc(NC(=O)CSc2nc(Cc3ccc(O)cc3)c(C)[nH]2)no1		inconclusive: 46.5%	
CCCCNC(=S)NC(C)(C)CO		inconclusive: -49.5% [cytotoxic] [at 0.369 µM]	
O=C(CSc1nnc(Cc2ccsc2)o1)c1ccccc1		inconclusive: 14.2%	
CCOC1=NN(c2ccccc2)C(=O)/C1=C\N(C)C		inconclusive: 26.4%	
Clc1ccc(-c2csc(N/N=C\c3cccnc3)n2)cc1	inconclusive: 0.461 µM [activator, partial curve, poor fit]		
Cc1ccc(-n2c(SCC(=O)NCc3ccc4c(c3)OCO4)nnc2-c2cccnc2)c(C)c1		inconclusive: -19.8%	
O=C(c1c[nH]c2ccccc12)C(O)C(c1ccccc1)N1CCOCC1 (centres undefined)	inconclusive: 8.2 µM [activator, partial curve, poor fit]		
COc1ccc(-n2nc(C(=O)NCC(=O)NCc3ccco3)c3ccccc3c2=O)cc1Cl	inconclusive: 0.13 µM [falling, full curve, poor fit]		
CC(=O)Nc1ccc(S(=O)(=O)Nc2cc(S(=O)(=O)N3CCCCC3)ccc2O)cc1		inconclusive	
Cc1cc(C)cc(NC(=O)c2nccnc2C(=O)O)c1	inconclusive: 0.731 µM [activator, single point]		
Cc1ccc2nc(-c3ccc(NC(=O)CN4CCN(C(=O)c5ccco5)CC4)cc3)sc2c1	inconclusive: 0.517 µM [activator, full curve]		

Structure (SMILES)	Potency	lipid storage change, negative = inhibition	outcome
CCOc1ccc(C2C=C(c3ccc(C)cc3)Nc3nnnn32)cc1 (centres undefined)		inconclusive: 17.8%	
COc1ccc(C(=O)Nc2ccccc2N2CCN(C(=O)c3ccccc3)CC2)cc1Br	active: 14.6 µM		
Cn1c2cc(B(O)O)sc2c2cnn(Cc3c(F)cccc3F)c(=O)c21	inconclusive: 16.4 µM [activator, partial curve, poor fit]		
COc1ccc(C)cc1NC(=O)CO/N=C(\N)CC(=O)NC1CCCCC1		inconclusive: -14.6%	
COc1ccc(-c2n[nH]c(C)c2-c2ccc(Cl)cc2)c(O)c1		inconclusive: -0.689%	
CCOc1ccc(C(NC(C)=O)c2ccc(OC)c(OC)c2)cc1 (centres undefined)		inconclusive: -55.9% [cytotoxic] [at 0.369 µM]	
COCCn1c(N)c(N(Cc2ccccc2)C(=O)CSCC(=O)Nc2ccc(C)cc2)c(=O)[nH]c1=O		inconclusive: -25.7% [at 0.0737 µM]	
CCOc1ccc(NC(=O)CN2C(=O)COc3ccc(Cl)cc32)cc1		inconclusive: -35.5%	
COc1ccc(/C(O)=C2\C(=O)C(=O)N(CCN(C)C)C2c2cccc(OC)c2OC)cc1Cl (centres undefined)		inconclusive: -36.8%	
O=C(Nc1ccc2ccccc2c1)c1ccc(Br)o1		inconclusive: -6.07%	
Cc1ccc2nc(SCC(=O)NCc3ccco3)c(C)cc2c1		inconclusive: 6.11%	
C=CCn1c(SCC(=O)Nc2c(C)nn(Cc3ccccc3)c2C)nnc1C(O)c1ccccc1 (centres undefined)	inconclusive: 18.4 µM [rising, single point]		
Cc1cc(C)c2sc(NC(=O)c3ccc([N+](=O)[O-])o3)nc2c1		inconclusive: -15.9%	
CC1CC(C)CN(CCCNC(=O)c2cc3c(s2)-c2ccccc2OC3)C1 (centres undefined)		inconclusive: 48.6%	
Fc1ccc(NC(=S)NC23CN4CN(CN(C4)C2)C3)cc1		inconclusive: -14.2%	
Cc1ccc(N(CN2C(=O)NC(C)(C)C2=O)CN2C(=O)NC(C)(C)C2=O)cc1	inconclusive: 3.66 µM [falling, full curve]		
O=C(NCCc1ccccc1)c1ccc(Cl)c(S(=O)(=O)N2CCCC2)c1	inconclusive: 29.1 µM [falling, single point]		
COc1cc(C(=O)O/N=C(\N)c2ccccn2)cc(OC)c1OC	inconclusive: 2.06 µM [activator, single point]		
CCOCCCNC(=O)CN1CCN(Cc2ccccc2C)C1=O	inconclusive: 29.1 µM [falling, single point]		
O=C(Nc1cccc(C(F)(F)F)c1)C12CC3CC(CC(C3)C1)C2		inconclusive: -12.7%	
CC(=O)c1c(C)[nH]c(C(=O)N2CCN(S(=O)(=O)c3ccc(F)c(F)c3)CC2)c1C	inconclusive: 0.0073 µM [falling, full curve, poor fit]		
O=[N+]([O-])c1ccc(/C=N/NS(=O)(=O)c2ccc(Cl)cc2)o1		inconclusive: 4.51%	
CCOC(=O)CCNC(=O)CNC(=O)OCc1ccccc1		inconclusive: 16.3%	
O=C(OCCCOC(=O)c1ccc(O)cc1)c1ccc(O)cc1	inconclusive: 23.1 µM [falling, single point]		
